Measured values reported in patent US7407670B2, “Solid dispersions comprising two different polymer matrixes” (Janssen Pharmaceutica, N.V., priority 2002, dated 2008).
At least one structure is not confirmed: it was looked up by name or label, or the drawing left a doubt.

Columns and labels:
[1] = Dissolution testing, USP 24 method 2 (paddle), simulated gastric fluid sine pepsin; assay type: physicochemical
[2] = MTDSC estimate of initial crystallinity and amount of itraconazole dissolved in eudragit E100; assay type: physicochemical; details: in the polymer at room temperature

Row | SMILES | dissolution rate (comparison in words) [1] | drug dissolved ([1]; after three hours, 310.0K, 200 mg itraconazole in 500 ml) [%] | itraconazole dissolved in eudragit E100 (summary of Table 1) [2]
1 | CCC(C)n1ncn(-c2ccc(N3CCN(c4ccc(OCC5COC(Cn6cncn6)(c6ccc(Cl)cc6Cl)O5)cc4)CC3)cc2)c1=O (stereo not drawn) [glassy itraconazole, itraconazole] | higher dissolution rate | 14 | –
2 | CCC(C)n1ncn(-c2ccc(N3CCN(c4ccc(OCC5COC(Cn6cncn6)(c6ccc(Cl)cc6Cl)O5)cc4)CC3)cc2)c1=O (stereo not drawn) [itraconazole, Itraconazole] | – | – | approximately 13 % w/w
